For the test, the target named is T1, KYGRGDS peptide (on a column).
T1 sequence (peptide): KYGRGDS
The experiment in a line: affinity chromatography on a peptide column; integrin from human platelets in Triton X-100 on an immobilised KYGRGDS column; addition and removal of 2 mM MnCl2; both purified.

Results are given in words; binding and its absence hold for the method and conditions named. Binding can be weak; no strength is given.

Consider “Integrin α IIb β 3 (human (endogenous in platelets)) (complex)”, for which the binding result was “binds”.
